Data taken from patent US7273847B2, “Peptides with antioxidant and antimicrobial properties” (priority 2000, dated 2007).

Assay: Aggregation of J5 LPS vesicles
Set-up: species or system E. coli
Details: not shown

SP-A: Native surfactant protein A isolated from the alveolar wash of silica-pretreated rats
Aggregation of E. coli J5 LPS: inhibited the aggregation
Established aggregation by J5 LPS vesicles: did not reverse established aggregation
